Laboratory results taken from US9707220B2 (The United States of America, as represented by the …, priority 2005, dated 2017).
Some results come without the dose or concentration used.

Test system: healthy volunteers (HV)
Assay: Example 1: dose-finding study, MADRS in healthy volunteers
Assay type: in vivo, human

CN1C2C[C@H](OC(=O)C(CO)c3ccccc3)CC1[C@H]1OC21 (stereo partly drawn) [scopolamine]
0±: MADRS score, Session 2, HV (mean) | MADRS score, Session 3, HV (mean) | MADRS score, Session 4, HV (mean)
